Results are given in words; binding and its absence hold for the method and conditions named. In cells and extracts the contact can be indirect. Some binding calls cover weakened binding; strength is not graded here.
Target: Huntingtin protein (HTT), endogenous full length (human (endogenous in HEK293)) (UniProt P42858)
Test: co-IP; 1 uL anti-HTT 5526 antibody with 500 ug HEK293 lysate for 1 h, Dynabeads M-280 anti-rabbit, 4°C 1 h; blot probed with anti-GFP antibodies

Amino acid sequences for entries named in this document (tags omitted). Residues count along the entry.
UniProt P42858: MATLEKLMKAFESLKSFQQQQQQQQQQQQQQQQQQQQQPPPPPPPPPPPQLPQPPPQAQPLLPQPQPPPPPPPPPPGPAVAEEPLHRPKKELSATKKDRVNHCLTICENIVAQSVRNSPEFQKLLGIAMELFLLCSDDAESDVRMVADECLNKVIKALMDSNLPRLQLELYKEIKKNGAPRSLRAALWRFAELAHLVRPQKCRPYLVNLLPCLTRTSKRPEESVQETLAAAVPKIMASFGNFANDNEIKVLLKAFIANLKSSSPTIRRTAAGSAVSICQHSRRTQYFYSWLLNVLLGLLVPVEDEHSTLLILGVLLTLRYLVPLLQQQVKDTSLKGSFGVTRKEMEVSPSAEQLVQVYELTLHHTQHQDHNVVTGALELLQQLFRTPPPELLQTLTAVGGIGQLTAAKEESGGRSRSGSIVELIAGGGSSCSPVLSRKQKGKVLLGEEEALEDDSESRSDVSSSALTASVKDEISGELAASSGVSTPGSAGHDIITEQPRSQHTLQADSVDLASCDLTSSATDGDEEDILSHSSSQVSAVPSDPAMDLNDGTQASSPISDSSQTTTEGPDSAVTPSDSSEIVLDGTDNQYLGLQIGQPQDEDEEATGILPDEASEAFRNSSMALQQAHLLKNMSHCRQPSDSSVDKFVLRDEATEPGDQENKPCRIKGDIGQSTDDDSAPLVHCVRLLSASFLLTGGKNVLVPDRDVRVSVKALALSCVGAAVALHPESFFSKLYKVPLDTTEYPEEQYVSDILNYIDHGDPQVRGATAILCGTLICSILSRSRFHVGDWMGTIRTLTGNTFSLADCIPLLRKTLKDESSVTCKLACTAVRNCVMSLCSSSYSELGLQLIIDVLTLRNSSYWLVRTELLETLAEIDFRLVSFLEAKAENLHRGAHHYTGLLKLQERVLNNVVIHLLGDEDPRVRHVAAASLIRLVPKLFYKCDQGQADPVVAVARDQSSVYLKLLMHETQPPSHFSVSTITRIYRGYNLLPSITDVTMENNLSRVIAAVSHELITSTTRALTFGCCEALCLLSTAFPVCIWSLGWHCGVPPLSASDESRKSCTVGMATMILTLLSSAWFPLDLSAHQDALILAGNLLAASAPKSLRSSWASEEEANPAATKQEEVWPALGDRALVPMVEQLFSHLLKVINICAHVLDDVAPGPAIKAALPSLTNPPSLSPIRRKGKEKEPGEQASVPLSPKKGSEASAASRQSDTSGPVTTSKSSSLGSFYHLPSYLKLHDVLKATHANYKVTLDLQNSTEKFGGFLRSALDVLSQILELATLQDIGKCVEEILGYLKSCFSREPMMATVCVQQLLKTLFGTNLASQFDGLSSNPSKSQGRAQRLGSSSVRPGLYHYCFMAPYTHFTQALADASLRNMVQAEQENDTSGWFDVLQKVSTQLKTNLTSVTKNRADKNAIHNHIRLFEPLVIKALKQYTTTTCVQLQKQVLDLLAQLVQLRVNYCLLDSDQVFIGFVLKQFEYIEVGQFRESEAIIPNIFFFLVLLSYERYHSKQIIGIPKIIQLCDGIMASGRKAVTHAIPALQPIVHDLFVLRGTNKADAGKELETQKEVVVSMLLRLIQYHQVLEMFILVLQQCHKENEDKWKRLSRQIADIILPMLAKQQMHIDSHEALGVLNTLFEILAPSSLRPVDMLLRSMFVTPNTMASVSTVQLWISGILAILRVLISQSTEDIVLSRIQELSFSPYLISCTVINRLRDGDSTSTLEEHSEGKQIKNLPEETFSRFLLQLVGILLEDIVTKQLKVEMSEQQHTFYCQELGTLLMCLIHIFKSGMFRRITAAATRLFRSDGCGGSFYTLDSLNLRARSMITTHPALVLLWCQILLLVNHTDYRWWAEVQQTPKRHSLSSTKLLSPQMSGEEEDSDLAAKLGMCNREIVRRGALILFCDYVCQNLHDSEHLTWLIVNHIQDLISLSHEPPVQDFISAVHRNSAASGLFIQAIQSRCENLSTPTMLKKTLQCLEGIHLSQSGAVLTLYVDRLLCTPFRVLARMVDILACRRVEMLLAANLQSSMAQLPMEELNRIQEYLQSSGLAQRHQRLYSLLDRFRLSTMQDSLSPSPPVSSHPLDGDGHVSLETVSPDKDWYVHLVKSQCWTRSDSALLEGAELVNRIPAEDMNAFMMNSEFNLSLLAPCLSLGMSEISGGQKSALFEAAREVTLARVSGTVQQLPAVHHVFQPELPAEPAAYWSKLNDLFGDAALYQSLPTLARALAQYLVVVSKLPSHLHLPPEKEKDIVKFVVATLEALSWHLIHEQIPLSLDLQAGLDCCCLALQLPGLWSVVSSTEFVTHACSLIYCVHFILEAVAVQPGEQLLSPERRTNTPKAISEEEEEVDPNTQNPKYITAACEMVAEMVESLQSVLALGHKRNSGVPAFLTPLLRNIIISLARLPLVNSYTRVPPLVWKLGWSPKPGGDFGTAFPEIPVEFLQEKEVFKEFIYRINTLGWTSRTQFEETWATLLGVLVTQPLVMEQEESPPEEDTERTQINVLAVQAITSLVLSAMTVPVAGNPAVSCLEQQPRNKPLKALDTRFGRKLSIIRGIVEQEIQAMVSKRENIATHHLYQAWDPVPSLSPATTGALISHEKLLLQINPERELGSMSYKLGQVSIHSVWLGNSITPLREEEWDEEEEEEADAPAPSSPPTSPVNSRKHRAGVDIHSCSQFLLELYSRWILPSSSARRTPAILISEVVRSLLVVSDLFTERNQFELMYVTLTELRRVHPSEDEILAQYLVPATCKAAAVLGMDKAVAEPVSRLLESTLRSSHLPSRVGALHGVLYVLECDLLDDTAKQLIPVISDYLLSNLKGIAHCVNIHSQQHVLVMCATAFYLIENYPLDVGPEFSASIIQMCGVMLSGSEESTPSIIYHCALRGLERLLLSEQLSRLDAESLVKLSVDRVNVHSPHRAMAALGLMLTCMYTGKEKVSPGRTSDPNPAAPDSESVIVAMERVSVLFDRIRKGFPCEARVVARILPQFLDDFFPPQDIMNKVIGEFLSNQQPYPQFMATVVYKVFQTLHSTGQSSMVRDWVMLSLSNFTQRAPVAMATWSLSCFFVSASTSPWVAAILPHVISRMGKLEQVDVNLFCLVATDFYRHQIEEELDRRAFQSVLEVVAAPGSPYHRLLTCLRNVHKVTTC
UniProt P02649, residues 19-317: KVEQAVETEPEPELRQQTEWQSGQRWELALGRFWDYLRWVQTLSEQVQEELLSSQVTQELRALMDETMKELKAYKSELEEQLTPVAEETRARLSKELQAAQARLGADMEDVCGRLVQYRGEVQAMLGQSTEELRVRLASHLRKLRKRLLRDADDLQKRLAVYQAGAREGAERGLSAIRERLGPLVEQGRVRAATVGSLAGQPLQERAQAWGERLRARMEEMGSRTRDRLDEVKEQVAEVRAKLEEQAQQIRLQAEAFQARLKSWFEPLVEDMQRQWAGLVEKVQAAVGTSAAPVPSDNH

Q: For “APOE3 tagged with mCherry-SepHluorin (from UniProt P02649 19-317)”, which binding is on record?
A: binds
